These are yes or no findings as the source states them, for the method shown. Some entries that bind do so weakly or less than the wild type. Tags and fused reporters may be left off the sequences shown.
Target: T1, Myc-tagged retinoschisin (non-mutant), purified (human), O15537
T1 chain: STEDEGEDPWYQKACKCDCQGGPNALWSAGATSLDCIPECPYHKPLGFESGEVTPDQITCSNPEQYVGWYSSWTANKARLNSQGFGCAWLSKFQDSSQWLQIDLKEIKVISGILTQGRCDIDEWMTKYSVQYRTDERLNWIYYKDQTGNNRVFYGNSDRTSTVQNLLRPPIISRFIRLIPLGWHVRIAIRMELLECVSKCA
Assay: SDS-PAGE under non-reducing and reducing conditions, Western blot; aliquots of Hek293 culture supernatant and of purified Myc-tagged RS1 fractions on 4-20% gradient gels, antiretinoschisin antibody; disulphide-linked oligomers; both purified
Conditions: remark: other sources report otherwise

- binding: binds
B1: Myc-tagged retinoschisin (non-mutant), purified, O15537 24-224 (protein)
chain: STEDEGEDPWYQKACKCDCQGGPNALWSAGATSLDCIPECPYHKPLGFESGEVTPDQITCSNPEQYVGWYSSWTANKARLNSQGFGCAWLSKFQDSSQWLQIDLKEIKVISGILTQGRCDIDEWMTKYSVQYRTDERLNWIYYKDQTGNNRVFYGNSDRTSTVQNLLRPPIISRFIRLIPLGWHVRIAIRMELLECVSKCA

From PMC5345684
